Consider three compounds from US20060003965A1, “N-acetyl-d-glucosamine (nag) supplemented food products and beverages” (priority 2002, published 2006).

The structures appear in SMILES notation.

The nature of series [1]: Sensory panel, Jiffy corn muffins. As to conditions: 0.75 g/muffin, baked 400° F. 18 min, average of 12 panelists, scale −5 to +5 vs control. The text has this:
Jiffy® Corn Muffin Mix was used as the basis for incorporation of samples. Corn muffins were chosen due to their light color and mild taste. One serving is one muffin (as per the manufacturer).
Two boxes prepare 12 large muffins, a box was used to prepare 4 batches of samples (3 muffins per batch). For servings which included GLCN or NAG, the serving (1 muffin) had 0.75 g GLCN or NAG added, which reflects a typical amount of GLCN or NAG delivered in dietary supplement products. Except for the control, each batch had 2.25 g of NAG or GLCN added (0.75 g NAG or GLCN/muffin×3 muffins=2.25 g NAG or GLCN/batch). Each batch was prepared separately, so that the muffins were baked in the same places on the muffin pan. GLCN or NAG was added to the dry mix and mixed with a spoon. To this, 4 teaspoons of milk and ¼ of a beaten egg were added and the ingredients blended until slightly lumpy (each batch was mixed for the same amount of time). The mixtures were allowed to sit for three minutes, then evenly distributed into lightly-greased muffin cups. The muffins were baked at 400° F. for 18 minutes, then immediately removed from the muffin cup and stored in airtight containers.
(§1) Samples were tested according to the methodology and instructions in Example 1.

Series [2] in a line: Sensory panel, Canny Kits bubble gum. The settings on record: 0.75 g/serving, microwaved with gum base, average of twelve panelists, scale −5 to +5 vs control.
Source text: Canny Kits® Bubble Gum was be used as the basis for incorporation of samples. A serving of gum was estimated to be two pieces of gum.
According to the manufacturer's instructions, the mix makes over ¼ pound of gum. Assuming a piece of gum weighs at least 4 g, the mix can prepare approximately 30 pieces of gum. A gum kit was used to make two batches of gum. For servings which included GLCN or NAG, the serving (2 pieces of gum) had 0.75 g GLCN or NAG, or 0.375 g GLCN or NAG per piece of gum added, which reflects a typical amount of GLCN or NAG delivered in dietary supplement products. Except for the control batch, 5.625 g of GLCN or NAG was added (0.375 g active per piece of gum×15 pieces of gum in ½ a gum kit=5.625 g).
To make the gum, a plate was covered with waxed paper. Half of the powdered sugar provided was poured onto the waxed paper, and a well was formed in the pile of sugar to receive the melted gum and syrup. The gum-base pellets were melted by placing them in a plastic cup with the corn syrup, flavoring and GLCN or NAG (as applicable), then microwaving in a 1000 watt Amana Radarange microwave on high for 15 seconds. The heating step was repeated for two more 15 second intervals, stirring after each, until the gum base was completely melted. This melted mixture was slowly added to the powdered sugar, with constant mixing. The gum was worked into the powdered sugar until it no more sugar would absorb. When the gum was cool enough to handle, it was handled like bread dough and rolled flat, cooled, and cut into pieces for sensory testing.
as §1

The nature of series [3]: Sensory panel, Rice Krispies Treats. As to conditions: 0.75 g/serving, added to melted marshmallow, average of 12 panelists, scale −5 worse to +5 better than control. On the procedure:
Rice Krispies® Treats were used as the basis for incorporation of samples. According to the manufacturer, two treats are a serving. To prepare the samples, four batches of Rice Krispies® Treats were prepared for sensory testing as follows: • batch 1. Control (no GLCN, no NAG). • batch 2. GLCN (glucosamine hydrochloride derived from fungal biomass, Cargill, Minneapolis, Minn., Lot No. GP015-A). • batch 3. GLCN (glucosamine hydrochloride derived from shellfish, Batch 011107, Index # 9152, V.L. Clark Chemical Co., Inc., Union, Mo.). • batch 4. NAG (N-Acetyl-D-glucosamine, Lot # 27294A, Catalog # A-102-2, Ferro Pfanstiehl, Waukegan, Ill.).
According to the manufacturer's instructions, the recipe prepares 24 treats, so 4 batches were prepared from the recipe. Each batch consisted of six treats, or three servings. For servings which included GLCN or NAG, the serving (2 treats) had 0.75 g GLCN or NAG, or 0.375 g per treat added, which reflects a typical amount of GLCN or NAG delivered in dietary supplement products (0.25 g-1.5 g/serving). Therefore, except for the control batch, each batch had 2.25 g of GLCN or NAG added (0.375 g GLCN or NAG per treat×6 treats in batch=2.25 g GLCN or NAG per batch). GLCN or NAG was added to the melted marshmallow (melt marshmallow in a 1000 watt Amana Radarange microwave following manufacturer's instructions) prior to adding the Rice Krispies®, to evenly disperse the minor dry ingredients. Here, the samples were not heated to high temperatures.
Samples were tested within one day of preparing. Samples were tested blindly against a marked control, and a blind control was included. Panelists were asked to compare each sample to the control and comment. Panelists received the following instructions: • 1. Taste the control sample first. • 2. Compare all other samples to the control and write descriptors in the table (some potential comments might be whether or not the sample is hard, soft, brittle, crumbly, chewy, or grainy).
3. Numerically rate whether the samples are better or worse than the control, using this scale: […]

Series [4] is described as follows: Sensory panel, Fleischmann's Country White bread machine mix. The settings on record: 0.75 g/slice, baked in bread machine, average of 10 panelists, scale −5 to +5 vs control. Here is the method:
Fleischmann's® Bread Machine Mix was used as the basis for incorporation of samples. Country White Mix was chosen due to its light color and mild flavor. According to the manufacturer, 1 box make 8 servings (8 slices).
One box of bread mix was used for each batch. For servings which included GLCN or NAG, the serving (1 slice) had 0.75 g GLCN or NAG added, which reflects a typical amount of GLCN or NAG delivered in dietary supplement products. Except for the control, 6 g GLCN or NAG was added to each batch (0.75 g NAG or GLCN/slice×8 slices=6 g NAG or GLCN/batch). The recipe on the box was used. GLCN or NAG was added to the dry mix and mixed with a spoon, and the mixture added to a breadmaker. To this, 8 ounces of water (75° F.-85° F.), and 1 package of yeast (provided with the bread mix) was added. The bread machine was set to medium/normal crust color. The finished bread was immediately removed, cooled on a plate, and stored in airtight containers.
as §1

Series [5] in a line: Sensory panel, Allsport sports drink. As to conditions: 0.75 g/serving, heated 195±4° F. 42±4 s, average of 12 panelists, scale −5 to +5 vs control.
Source text: Allsport® sports drink (The Monarch Company, Atlanta, Ga.) was used as the basis for incorporation of samples. Citrus Slam flavor was chosen because of its light color, which may help panelists observe any color change. According to the manufacturer, a 20-ounce bottle of Allsport® contains 2.5 servings.
For servings that included GLCN or NAG, the serving had 0.75 g GLCN or NAG added, which reflects a typical amount of GLCN or NAG delivered in dietary supplement products. Therefore, 1.875 g (0.75 g/serving GLCN or NAG×2.5 servings/bottle=1.875 g GLCN or NAG/bottle) of GLCN or NAG was added to a 20-ounce bottle of Allsport®. After the bottles were prepared, the contents were heated to 195±4° F. for 42±4 seconds to simulate a pasteurization step. Samples were heated in a 1000 watt Amana Radarange microwave oven in foam cups for the same amount of time. For a room temperature beverage, 150 seconds of heating time was necessary, and for a refrigerated beverage, 180 seconds was required. The beverages were cooled in their original bottles, ¾ submerged in an ice water bath, and hand rotated to simulate flash cooling.
as §1

The nature of series [6]: Sensory panel, Lipton instant tea. As to conditions: 1.425 g/8 ounce serving, average of six panelists, scale −5 to +5. Here is the method:
Tea made from Lipton® instant tea mix was used as the basis for incorporation of samples. To prepare the tea, the following recipe was used: 2.69 g instant tea, 5.7 g GLCN or NAG (where applicable) then add water to one quart. Tea was prepared for sensory testing as follows:
Batch 1. Control Tea (no NAG or glucosamine)
Batch 2. Tea+glucosamine (pH 5-6) [GLCN from fungal biomass, see batch 2 Example 1]
Batch 3. Tea+NAG (pH 5-6) (N-Acetyl-D-glucosamine, Catalog # A-102-2, Ferro Pfanstiehl, Waukegan, Ill.)
Batch 4. Tea+glucosamine (pH 5-6) heated to 71° C. for 20 minutes
Batch 5. Tea+glucosamine heated (pH 5-6) to 90° C. for 20 seconds, flash cooled in ice water bath
Batch 6. Tea+glucosamine (pH 5-6) boiled on stove for 5 minutes, flash cooled in ice water bath
Batch 7. Tea+NAG (pH 5-6) heated to 71° C. for 20 minutes
Batch 8. Tea+NAG (pH 5-6) heated to 90° C. for 20 seconds, flash cooled in ice water bath
Batch 9. Tea+NAG (pH 5-6) boiled on stove for 5 minutes, flash cooled in ice water bath
The recipe prepared one quart, so each batch consisted of 32 ounces, or four 8-ounce servings. For servings that included GLCN or NAG, the serving (8 ounces) had 1.425 g GLCN or NAG, or 5.7 g GLCN or NAG per batch (1.425 g/serving×4 servings/batch=5.7 g/batch), which reflects a typical amount of GLCN or NAG delivered in dietary supplement products.
Samples were tested within one day of preparing. Samples were tested blindly against a marked control, and a blind control was included. Panelists were asked to compare each sample to the control and comment using the instructions and scale described in Example 1.

[7] abbreviates: heated to 71° C. for 20 minutes.
The mark [8] stands for this setting: heated to 90° C. for 20 seconds.

Turning to `Cl.N[C@H]1C(O)O[C@H](CO)[C@@H](O)[C@@H]1O` (some centres unmarked) [Fungal GLCN, glucosamine hydrochloride], the Color was −2.1 in series [1] (hydrochloride); −0.3 in series [2] (hydrochloride); 0 in series [3]; −0.9 in series [4]; 0 in series [5] (hydrochloride). Besides, the Mouthfeel/texture in series [1] (hydrochloride) is listed as −0.8; in series [2] (hydrochloride) it was −0.6; in series [3] (hydrochloride) it was −0.1; in series [4] (hydrochloride) it was −1.1; in series [5] (hydrochloride), “+0.1”. Moreover, the Odor in series [1] (hydrochloride), in series [3] (hydrochloride), in series [4] (hydrochloride) and in series [5] was −0.3 throughout. The Taste in series [1] (hydrochloride) is on record as −2.4; in series [2] (hydrochloride) it was −2.9; in series [3] (hydrochloride), −0.4; in series [4] (hydrochloride), −1.0; in series [5] (hydrochloride) it was −0.3; in series [6] (boiled 5 minutes), −2.2. For the same compound, the Taste in series [6] (setting [7]) is reported as −3.7; in series [6] (setting [8]) it was −4.2; in series [6] (not heated), −3.2.

`CC(=O)N[C@H]1C(O)O[C@H](CO)[C@@H](O)[C@@H]1O` (stereo partly drawn) [NAG, N-Acetyl-D-glucosamine]: the Color result in series [1] is reported as “+0.3”; in series [2] it was “+0.1”; in series [3], 0; in series [4], −0.1; in series [5], −0.1. In addition, the Mouthfeel/texture in series [1] is −0.1; in series [2] it was −0.2; in series [3], “+0.3”; in series [4] it was 0; in series [5], 0. Moreover, the Odor in series [1] is recorded as −0.2; in series [3] it was “+0.3”; in series [4] it was 0; in series [5], “+0.1”. Besides, the Taste was −0.1 in series [1]; −0.3 in series [2]; “+0.3” in series [3]; −0.3 in series [4]; −0.2 in series [5]; 0.2 in series [6] (boiled 5 minutes). Besides, the results for the Taste in series [6] (setting [7]), in series [6] (setting [8]) and in series [6] (not heated) were 1.3, 1.2 and 2.0, respectively.

On to `Cl.N[C@H]1C(O)O[C@H](CO)[C@@H](O)[C@@H]1O` (some centres unmarked) [Shellfish GLCN, glucosamine hydrochloride], for which the Color is −1.7 in series [1] (hydrochloride); −0.2 in series [2] (hydrochloride); 0 in series [3]; −0.9 in series [4]; −0.1 in series [5] (hydrochloride). Also, the Mouthfeel/texture is reported as −0.1 in series [1] (hydrochloride); −0.8 in series [2] (hydrochloride); 0 in series [3] (hydrochloride); −0.4 in series [4] (hydrochloride); −0.2 in series [5] (hydrochloride). Further, the Odor in series [1] (hydrochloride) is −0.4; in series [3] (hydrochloride) it was 0; in series [4] (hydrochloride), −0.2; in series [5] it was −0.3. The Taste is on record as −1.0 in series [1] (hydrochloride); −1.8 in series [2] (hydrochloride); −1.4 in series [3] (hydrochloride); −1.1 in series [4] (hydrochloride); −0.7 in series [5] (hydrochloride).
